Literature values as cited in PMC5962642, “Dynamic imaging of adaptive stress response pathway activation for prediction of drug induced liver injury” (Archives of Toxicology, 2018).

Columns and labels:
[1] = ref Chen et al. [2016], cited from earlier work; for DILI con. (DILI-concern labeling): FDA DILI labeling; for Hepa. (hepatotoxicity class): FDA labeling in eight classes of hepatotoxicity
[2] = C-max obtained from FDA or literature; ref per compound (FDA, Dailymed, Xu, O’Brien, Khetani, Regenthal, Gustafsson, Dawson, Ogutu, Patel, Schmidt, Ravic, Keisu, Hu, Wagner); cited from earlier work

SMILES | DILI con. (DILI-concern labeling) [1] | Hepa. (hepatotoxicity class) [1] | Cmax [2] [µM]
CCCCc1oc2ccccc2c1C(=O)c1cc(I)c(OCCN(CC)CC)c(I)c1 [Amiodarone] | Most-DC | 8 | 
O=C(O)c1cn(C2CC2)c2cc(N3CCNCC3)c(F)cc2c1=O [Ciprofloxacin] |  |  | 6.58
NS(=O)(=O)c1cc(C(=O)O)c(NCc2ccco2)cc1Cl [Furosemide] |  |  | 3.29
COc1ccc2cc([C@H](C)C(=O)O)ccc2c1 [Naproxen] | Less-DC | 3 | 
